# Measured values published in the supplement of paper PMC8728848.
# Some of the results follow.
# Experiments:
# Assay in all cases: glycan array binding signal (z-score within array); higher = stronger binding
# Conditions in all cases: glycan notation: IUPAC condensed, linker removed
# [1] = target: Gal3S(b1-4)Glc
# Method in brief: (§1)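 The binding signal is a Z-score computed within each array. Data were drawn from 3228 arrays in the Consortium for Functional Glycomics database, restricted to those with a known protein sequence. Scores were averaged over arrays of the same protein sequence at different concentrations or buffers, and over linkers, and negative values can be taken as non-binding.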
# [2] = target: Gal3S(b1-4)Glc6S
# Method in brief: as §1
# [3] = target: Gal3S(b1-4)GlcNAc
# Method in brief: as §1
# [4] = target: Gal3S(b1-4)[Fuc(a1-3)]Glc6S
# Method in brief: as §1
# [5] = target: Gal3S(b1-4)[Fuc(a1-3)]GlcNAc
# Method in brief: as §1
# [6] = target: Gal3S(b1-4)[Fuc(a1-3)]GlcNAc6S
# Method in brief: as §1
# [7] = target: Gal3S4S(b1-4)GlcNAc
# Method in brief: as §1
# [8] = target: Gal3S6S(b1-4)GlcNAc
# Method in brief: as §1
# [9] = target: Gal3S6S(b1-4)GlcNAc6S
# Method in brief: as §1
# [10] = target: Gal4S(b1-4)GlcNAc
# Method in brief: as §1
# [11] = target: Gal4S6S(b1-4)GlcNAc
# Method in brief: as §1
# [12] = target: Gal6P(b1-4)GlcNAc
# Method in brief: as §1
# [13] = target: Gal6S(b1-3)GlcNAc
# Method in brief: as §1
# [14] = target: Gal6S(b1-3)GlcNAc6S
# Method in brief: as §1
# [15] = target: Gal6S(b1-4)Glc
# Method in brief: as §1
# [16] = target: Gal6S(b1-4)Glc6S
# Method in brief: as §1
# [17] = target: Gal6S(b1-4)GlcNAc
# Method in brief: as §1
# [18] = target: Gal6S(b1-4)GlcNAc6S
# Method in brief: as §1
# [19] = target: GalNAc(a1-3)Gal
# Method in brief: as §1
# [20] = target: GalNAc(a1-3)GalNAc
# Method in brief: as §1
# [21] = target: GalNAc(a1-3)GalNAc(b1-3)Gal(a1-4)Gal(b1-4)Glc
# Method in brief: as §1
# [22] = target: GalNAc(a1-3)GalNAc(b1-3)Gal(a1-4)Gal(b1-4)GlcNAc
# Method in brief: as §1
# [23] = target: GalNAc(b1-3)Gal
# Method in brief: as §1
# [24] = target: GalNAc(b1-3)Gal(a1-4)Gal(b1-4)GlcNAc
# Method in brief: as §1
# [25] = target: GalNAc(b1-3)Gal(a1-4)Gal(b1-4)GlcNAc(b1-3)Gal(b1-4)Glc
# Method in brief: as §1
# [26] = target: GalNAc(b1-3)Gal(a1-6)Gal(b1-4)Glc
# Method in brief: as §1
# [27] = target: GalNAc(b1-3)GalNAc
# Method in brief: as §1
# [28] = target: GalNAc(b1-3)GlcNAc
# Method in brief: as §1
# [29] = target: GalNAc(b1-4)Gal(b1-4)Glc
# Method in brief: as §1
# [30] = target: GalNAc(b1-4)GlcNAc
# Method in brief: as §1
# [31] = target: GalNAc(b1-4)GlcNAc(b1-2)Man
# Method in brief: as §1
# [32] = target: GalNAc(b1-4)GlcNAc(b1-2)Man(a1-3)[GalNAc(b1-4)GlcNAc(b1-2)Man(a1-6)]Man(b1-4)GlcNAc(b1-4)GlcNAc
# Method in brief: as §1
# [33] = target: GalNAc(b1-4)GlcNAc(b1-3)GalNAc(b1-4)GlcNAc
# Method in brief: as §1
# [34] = target: GalNAc(b1-4)GlcNAc6S
# Method in brief: as §1
# [35] = target: GalNAc(b1-6)GalNAc
# Method in brief: as §1
# [36] = target: GalNAc3S(b1-4)GlcNAc
# Method in brief: as §1
# [37] = target: GalNAc3S(b1-4)GlcNAc3S
# Method in brief: as §1
binder,measurement,setting,value
B3GalT2 (Rattus norvegicus) (protein) LMLQWRRRHCCFAKMSWNAKRSLFRTHLMGVLSLVFLFAMFLFFNHHDWLPGRPGFKENPVTYTFRGFRSTKTETNQSSLRNIWKEVVPQTLRPQTATNSNNTELSPQGVTGLENTLSANGSIYNEKGTGHPNSYHFKYIINEPEKCQEKSPFLILLIAAEPGQIEARRAIRQTWGNETLAPGIQITRIFLLGISIKLNGYLQHAIQEESIQYHDIIQQEYLDTYYNLTIKTLMGMNWVATYCPHTPYVMKTDSDMFVNTEYLIHKLLKPDLPPRHNYFTGYLMRGYAPNRNKDSKWYMPPDLYPSERYPVFCSGTGYVFSGDLAEKIFKVSLGIRRLHLEDVYVGICLAKLRVDPVPPPNEFVFNHWRVSYSSCKYSHLITSHQFQPSELIKYWNHLQQNKHNACVNAAKEKAGRYRHRKLH,glycan array binding signal (z-score),[1],0.307
same,glycan array binding signal (z-score),[2],0.421
same,glycan array binding signal (z-score),[3],0.129
same,glycan array binding signal (z-score),[4],-0.161
same,glycan array binding signal (z-score),[5],0.787
same,glycan array binding signal (z-score),[6],0.613
same,glycan array binding signal (z-score),[7],0.948
same,glycan array binding signal (z-score),[8],0.892
same,glycan array binding signal (z-score),[9],1.33
same,glycan array binding signal (z-score),[10],0.463
same,glycan array binding signal (z-score),[11],1.63
same,glycan array binding signal (z-score),[12],-0.663
same,glycan array binding signal (z-score),[13],2.69
same,glycan array binding signal (z-score),[14],0.576
same,glycan array binding signal (z-score),[15],0.439
same,glycan array binding signal (z-score),[16],0.992
same,glycan array binding signal (z-score),[17],-0.022
same,glycan array binding signal (z-score),[18],1.34
same,glycan array binding signal (z-score),[19],0.001
same,glycan array binding signal (z-score),[20],-0.798
same,glycan array binding signal (z-score),[21],-0.606
same,glycan array binding signal (z-score),[22],1.41
same,glycan array binding signal (z-score),[23],-0.173
same,glycan array binding signal (z-score),[24],0.82
same,glycan array binding signal (z-score),[25],-0.596
same,glycan array binding signal (z-score),[26],-0.464
same,glycan array binding signal (z-score),[27],1.69
same,glycan array binding signal (z-score),[28],1.05
same,glycan array binding signal (z-score),[29],-0.492
same,glycan array binding signal (z-score),[30],0.342
same,glycan array binding signal (z-score),[31],1.72
same,glycan array binding signal (z-score),[32],-0.857
same,glycan array binding signal (z-score),[33],-0.185
same,glycan array binding signal (z-score),[34],-0.243
same,glycan array binding signal (z-score),[35],0.126
same,glycan array binding signal (z-score),[36],0.6
same,glycan array binding signal (z-score),[37],0.014

# Nothing new here: an excerpt of the list.
binder,measurement,setting,value
B3GalT2 (Rattus norvegicus) (protein) LMLQWRRRHCCFAKMSWNAKRSLFRTHLMGVLSLVFLFAMFLFFNHHDWLPGRPGFKENPVTYTFRGFRSTKTETNQSSLRNIWKEVVPQTLRPQTATNSNNTELSPQGVTGLENTLSANGSIYNEKGTGHPNSYHFKYIINEPEKCQEKSPFLILLIAAEPGQIEARRAIRQTWGNETLAPGIQITRIFLLGISIKLNGYLQHAIQEESIQYHDIIQQEYLDTYYNLTIKTLMGMNWVATYCPHTPYVMKTDSDMFVNTEYLIHKLLKPDLPPRHNYFTGYLMRGYAPNRNKDSKWYMPPDLYPSERYPVFCSGTGYVFSGDLAEKIFKVSLGIRRLHLEDVYVGICLAKLRVDPVPPPNEFVFNHWRVSYSSCKYSHLITSHQFQPSELIKYWNHLQQNKHNACVNAAKEKAGRYRHRKLH,glycan array binding signal (z-score),[19],0.001
same,glycan array binding signal (z-score),[20],-0.798
same,glycan array binding signal (z-score),[21],-0.606
